Experimental findings from the supplement of paper PMC12819154, “High-throughput peptide-centric local stability assay extends protein–ligand identification to membrane proteins, tissues and bacteria” (Nature Structural & Molecular Biology, 2025) are described below.

Protein sequences, listed by entry. Tags and fused reporters are not part of them. Lines headed by an entry give the natural chain unless they say otherwise; changes in a name come on top.
UniProt Q9JHH6: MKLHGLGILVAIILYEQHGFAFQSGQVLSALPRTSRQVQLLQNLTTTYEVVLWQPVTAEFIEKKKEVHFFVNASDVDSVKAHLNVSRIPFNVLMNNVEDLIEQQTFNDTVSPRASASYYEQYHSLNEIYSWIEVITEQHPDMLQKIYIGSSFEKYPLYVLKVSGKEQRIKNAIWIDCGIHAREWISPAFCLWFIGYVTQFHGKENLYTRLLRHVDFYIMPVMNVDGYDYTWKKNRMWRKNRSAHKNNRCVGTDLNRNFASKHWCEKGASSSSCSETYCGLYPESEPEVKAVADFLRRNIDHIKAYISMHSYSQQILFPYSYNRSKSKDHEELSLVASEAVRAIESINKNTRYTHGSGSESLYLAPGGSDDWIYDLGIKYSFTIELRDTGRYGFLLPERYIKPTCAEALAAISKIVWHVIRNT
UniProt Q9JIG7, whole entry: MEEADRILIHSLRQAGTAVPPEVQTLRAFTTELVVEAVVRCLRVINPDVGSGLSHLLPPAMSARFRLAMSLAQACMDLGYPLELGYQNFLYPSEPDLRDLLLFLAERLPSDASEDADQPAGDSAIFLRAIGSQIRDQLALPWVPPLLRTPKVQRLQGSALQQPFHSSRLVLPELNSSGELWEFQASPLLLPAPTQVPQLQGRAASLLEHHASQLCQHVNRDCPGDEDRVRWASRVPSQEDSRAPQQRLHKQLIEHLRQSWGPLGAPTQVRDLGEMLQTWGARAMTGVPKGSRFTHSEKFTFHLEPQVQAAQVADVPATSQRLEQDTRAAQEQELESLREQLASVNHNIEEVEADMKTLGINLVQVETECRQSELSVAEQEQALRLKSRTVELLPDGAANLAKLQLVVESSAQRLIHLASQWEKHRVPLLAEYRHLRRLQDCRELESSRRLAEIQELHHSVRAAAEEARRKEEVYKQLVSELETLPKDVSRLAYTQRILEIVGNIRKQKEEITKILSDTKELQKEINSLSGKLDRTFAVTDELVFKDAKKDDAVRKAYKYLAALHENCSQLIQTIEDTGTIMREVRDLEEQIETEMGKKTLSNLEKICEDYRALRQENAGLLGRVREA
UniProt Q9JMK0: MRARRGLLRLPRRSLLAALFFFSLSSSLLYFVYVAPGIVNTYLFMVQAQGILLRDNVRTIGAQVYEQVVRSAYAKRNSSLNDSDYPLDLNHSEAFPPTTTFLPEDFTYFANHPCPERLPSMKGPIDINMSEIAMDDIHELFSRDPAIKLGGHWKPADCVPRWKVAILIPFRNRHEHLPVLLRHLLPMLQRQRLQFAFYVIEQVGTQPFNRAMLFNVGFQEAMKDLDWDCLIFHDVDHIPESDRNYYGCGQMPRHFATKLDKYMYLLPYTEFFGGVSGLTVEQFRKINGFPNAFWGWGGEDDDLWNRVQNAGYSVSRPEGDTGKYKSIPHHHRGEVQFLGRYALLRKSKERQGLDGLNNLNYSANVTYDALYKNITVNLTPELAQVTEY
UniProt Q9JHI5: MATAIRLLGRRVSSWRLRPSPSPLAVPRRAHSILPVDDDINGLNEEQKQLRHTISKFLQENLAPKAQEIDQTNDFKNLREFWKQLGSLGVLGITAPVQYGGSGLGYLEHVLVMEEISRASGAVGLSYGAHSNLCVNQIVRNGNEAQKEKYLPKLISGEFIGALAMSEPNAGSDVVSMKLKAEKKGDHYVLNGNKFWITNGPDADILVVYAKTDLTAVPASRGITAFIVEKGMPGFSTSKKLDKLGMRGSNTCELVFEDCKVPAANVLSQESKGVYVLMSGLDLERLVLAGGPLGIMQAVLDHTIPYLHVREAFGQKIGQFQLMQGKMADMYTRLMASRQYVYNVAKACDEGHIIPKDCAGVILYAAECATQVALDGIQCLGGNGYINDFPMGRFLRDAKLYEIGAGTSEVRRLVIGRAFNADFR
UniProt Q9JJL8: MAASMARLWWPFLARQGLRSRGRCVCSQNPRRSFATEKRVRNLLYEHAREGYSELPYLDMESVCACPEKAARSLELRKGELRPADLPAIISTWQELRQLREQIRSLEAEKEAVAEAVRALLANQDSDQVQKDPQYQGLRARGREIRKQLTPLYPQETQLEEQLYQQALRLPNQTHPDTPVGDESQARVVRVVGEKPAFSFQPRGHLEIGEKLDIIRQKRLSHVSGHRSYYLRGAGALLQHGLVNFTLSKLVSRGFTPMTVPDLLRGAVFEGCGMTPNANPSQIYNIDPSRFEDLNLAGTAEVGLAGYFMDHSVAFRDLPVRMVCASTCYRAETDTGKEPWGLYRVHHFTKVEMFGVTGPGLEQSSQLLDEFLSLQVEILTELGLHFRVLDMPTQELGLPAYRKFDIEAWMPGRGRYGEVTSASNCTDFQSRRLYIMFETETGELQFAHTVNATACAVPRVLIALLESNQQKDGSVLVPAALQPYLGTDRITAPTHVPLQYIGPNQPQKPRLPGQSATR
UniProt Q9JJD0: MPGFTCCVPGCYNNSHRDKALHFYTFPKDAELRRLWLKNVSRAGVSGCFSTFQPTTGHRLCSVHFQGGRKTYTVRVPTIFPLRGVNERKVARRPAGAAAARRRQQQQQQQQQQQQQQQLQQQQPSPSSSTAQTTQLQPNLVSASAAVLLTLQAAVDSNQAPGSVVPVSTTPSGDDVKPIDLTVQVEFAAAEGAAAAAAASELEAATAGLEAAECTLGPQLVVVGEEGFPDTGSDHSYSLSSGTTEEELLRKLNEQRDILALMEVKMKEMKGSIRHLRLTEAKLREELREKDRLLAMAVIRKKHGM
UniProt Q9ERU9, whole entry: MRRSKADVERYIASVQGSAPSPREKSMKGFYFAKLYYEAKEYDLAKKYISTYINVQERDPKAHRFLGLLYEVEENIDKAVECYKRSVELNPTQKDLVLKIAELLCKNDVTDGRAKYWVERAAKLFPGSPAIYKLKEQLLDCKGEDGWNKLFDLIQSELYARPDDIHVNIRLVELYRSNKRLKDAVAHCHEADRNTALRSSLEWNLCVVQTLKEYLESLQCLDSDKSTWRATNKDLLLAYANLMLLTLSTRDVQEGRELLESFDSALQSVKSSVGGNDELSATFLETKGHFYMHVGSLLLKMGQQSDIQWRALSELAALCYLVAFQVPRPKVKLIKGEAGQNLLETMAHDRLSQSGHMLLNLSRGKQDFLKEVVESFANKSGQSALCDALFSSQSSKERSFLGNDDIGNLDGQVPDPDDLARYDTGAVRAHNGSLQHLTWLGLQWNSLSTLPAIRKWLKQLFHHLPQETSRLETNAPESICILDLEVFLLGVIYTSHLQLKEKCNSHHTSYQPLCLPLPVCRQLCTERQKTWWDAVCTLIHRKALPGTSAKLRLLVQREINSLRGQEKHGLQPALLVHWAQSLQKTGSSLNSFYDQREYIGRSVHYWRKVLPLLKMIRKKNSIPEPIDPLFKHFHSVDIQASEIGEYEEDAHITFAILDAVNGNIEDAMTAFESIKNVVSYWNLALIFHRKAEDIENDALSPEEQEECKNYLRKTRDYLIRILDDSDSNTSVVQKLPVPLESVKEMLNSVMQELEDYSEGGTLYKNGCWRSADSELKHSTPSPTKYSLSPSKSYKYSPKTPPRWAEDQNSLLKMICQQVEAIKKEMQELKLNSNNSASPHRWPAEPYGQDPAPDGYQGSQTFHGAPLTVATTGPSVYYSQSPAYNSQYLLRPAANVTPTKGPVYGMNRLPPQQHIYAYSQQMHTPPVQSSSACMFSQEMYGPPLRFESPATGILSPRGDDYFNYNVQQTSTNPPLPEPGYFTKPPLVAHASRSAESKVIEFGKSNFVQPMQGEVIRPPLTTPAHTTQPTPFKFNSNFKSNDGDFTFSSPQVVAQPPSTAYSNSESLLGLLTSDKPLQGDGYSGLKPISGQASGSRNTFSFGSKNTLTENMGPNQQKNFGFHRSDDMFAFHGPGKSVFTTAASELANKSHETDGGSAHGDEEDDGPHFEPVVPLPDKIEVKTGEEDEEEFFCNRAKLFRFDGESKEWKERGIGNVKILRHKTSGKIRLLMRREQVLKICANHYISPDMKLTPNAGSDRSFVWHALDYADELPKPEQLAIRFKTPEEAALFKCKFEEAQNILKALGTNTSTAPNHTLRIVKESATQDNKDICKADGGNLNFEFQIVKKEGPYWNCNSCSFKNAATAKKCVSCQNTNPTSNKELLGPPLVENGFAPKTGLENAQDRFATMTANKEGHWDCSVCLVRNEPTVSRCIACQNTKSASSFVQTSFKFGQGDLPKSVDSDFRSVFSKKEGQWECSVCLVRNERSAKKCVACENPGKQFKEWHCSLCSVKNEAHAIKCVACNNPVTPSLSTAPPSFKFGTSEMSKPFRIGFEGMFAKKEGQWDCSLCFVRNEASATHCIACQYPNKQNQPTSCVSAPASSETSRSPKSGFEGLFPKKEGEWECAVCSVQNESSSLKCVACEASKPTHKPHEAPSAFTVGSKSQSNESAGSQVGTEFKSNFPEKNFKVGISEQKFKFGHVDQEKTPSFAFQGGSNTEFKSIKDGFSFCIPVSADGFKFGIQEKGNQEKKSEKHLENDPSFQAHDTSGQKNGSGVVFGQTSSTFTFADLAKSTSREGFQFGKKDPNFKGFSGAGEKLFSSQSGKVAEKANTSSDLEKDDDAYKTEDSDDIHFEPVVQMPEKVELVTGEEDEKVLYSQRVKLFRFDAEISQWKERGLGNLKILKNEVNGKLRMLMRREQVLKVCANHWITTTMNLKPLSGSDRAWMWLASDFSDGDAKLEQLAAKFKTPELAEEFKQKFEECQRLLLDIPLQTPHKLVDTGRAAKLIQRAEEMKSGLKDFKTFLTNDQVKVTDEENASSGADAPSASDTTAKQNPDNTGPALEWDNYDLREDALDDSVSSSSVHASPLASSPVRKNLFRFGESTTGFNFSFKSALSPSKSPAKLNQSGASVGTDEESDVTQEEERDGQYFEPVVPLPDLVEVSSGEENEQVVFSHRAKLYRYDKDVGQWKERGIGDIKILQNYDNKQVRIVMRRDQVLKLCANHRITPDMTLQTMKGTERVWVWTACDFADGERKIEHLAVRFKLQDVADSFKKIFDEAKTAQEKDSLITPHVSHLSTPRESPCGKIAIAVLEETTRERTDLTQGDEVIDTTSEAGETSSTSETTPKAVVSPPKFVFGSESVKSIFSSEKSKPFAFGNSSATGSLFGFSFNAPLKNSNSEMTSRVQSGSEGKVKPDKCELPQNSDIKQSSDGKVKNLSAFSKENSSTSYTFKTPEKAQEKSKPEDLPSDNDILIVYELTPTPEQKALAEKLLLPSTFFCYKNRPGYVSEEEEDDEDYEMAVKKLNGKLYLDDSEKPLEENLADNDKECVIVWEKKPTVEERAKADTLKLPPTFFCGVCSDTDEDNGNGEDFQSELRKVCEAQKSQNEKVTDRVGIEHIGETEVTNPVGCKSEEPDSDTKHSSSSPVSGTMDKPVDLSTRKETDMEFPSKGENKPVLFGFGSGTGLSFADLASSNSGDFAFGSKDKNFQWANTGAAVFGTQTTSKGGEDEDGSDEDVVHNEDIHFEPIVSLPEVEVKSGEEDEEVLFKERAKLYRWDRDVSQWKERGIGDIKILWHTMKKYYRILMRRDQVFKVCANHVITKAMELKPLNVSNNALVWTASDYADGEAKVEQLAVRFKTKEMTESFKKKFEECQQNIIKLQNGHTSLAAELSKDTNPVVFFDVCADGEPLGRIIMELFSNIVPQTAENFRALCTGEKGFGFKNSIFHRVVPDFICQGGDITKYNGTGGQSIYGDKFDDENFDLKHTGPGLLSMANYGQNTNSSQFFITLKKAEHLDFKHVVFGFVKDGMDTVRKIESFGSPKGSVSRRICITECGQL
UniProt Q9JKX4: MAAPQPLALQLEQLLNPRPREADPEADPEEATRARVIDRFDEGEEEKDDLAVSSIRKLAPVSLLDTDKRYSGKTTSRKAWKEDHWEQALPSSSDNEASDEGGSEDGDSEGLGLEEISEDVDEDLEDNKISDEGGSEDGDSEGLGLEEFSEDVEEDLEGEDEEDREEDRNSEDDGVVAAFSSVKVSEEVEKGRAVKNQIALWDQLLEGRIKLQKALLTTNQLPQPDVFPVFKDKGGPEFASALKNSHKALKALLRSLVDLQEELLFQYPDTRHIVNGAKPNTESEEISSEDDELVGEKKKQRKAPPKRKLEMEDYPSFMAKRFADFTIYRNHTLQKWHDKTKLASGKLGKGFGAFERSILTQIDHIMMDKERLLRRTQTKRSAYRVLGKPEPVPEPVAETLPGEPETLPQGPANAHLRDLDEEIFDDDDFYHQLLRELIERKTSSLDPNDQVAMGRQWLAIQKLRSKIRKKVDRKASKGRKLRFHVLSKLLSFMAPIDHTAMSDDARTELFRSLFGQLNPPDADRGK
UniProt Q9ES70: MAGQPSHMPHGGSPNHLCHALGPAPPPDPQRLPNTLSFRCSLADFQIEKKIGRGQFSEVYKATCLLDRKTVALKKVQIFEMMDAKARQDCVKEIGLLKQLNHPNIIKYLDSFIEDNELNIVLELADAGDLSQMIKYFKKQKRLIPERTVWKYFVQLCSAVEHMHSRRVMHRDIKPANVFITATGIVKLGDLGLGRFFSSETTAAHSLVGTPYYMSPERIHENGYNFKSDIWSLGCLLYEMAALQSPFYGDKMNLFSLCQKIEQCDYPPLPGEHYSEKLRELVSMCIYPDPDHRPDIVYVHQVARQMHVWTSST

Some of the results follow. Most values lie at the level of the controls, where differences are scatter.

Compound in the experiment: CN[C@@H]1C[C@H]2O[C@@](C)([C@@H]1OC)n1c3ccccc3c3c4c(c5c6ccccc6n2c5c31)C(=O)NC4 [staurosporine]
Briefly: log2 fold change of tryptic peptide abundance, ligand vs vehicle (limited proteolysis) (log2 ratio); higher = more trypsin-susceptible (destabilized). The settings on record: ligand concentration: 20 uM; sample: mouse liver crude lysate; replicate design: treated separately.
As to “UniProt Q9JI90 (peptide sequence: AESVQGGETR, peptide start residue: 28)”, the log2 fold change is -0.437.

As for “UniProt Q9JHH6 (peptide sequence: YGFLLPER, peptide start residue: 391)”, the log2 fold change worked out at 0.288.

On to “UniProt Q9JMK2 (peptide sequence: SAAEPVASTPASR, peptide start residue: 343)”, for which the log2 fold change is -0.198.

With “UniProt Q9JJF3 (peptide sequence: RETLNPPGR, peptide start residue: 234)”, the log2 fold change amounted to 0.464.

As for “UniProt Q9JIG7 (peptide sequence: LQGSALQQPFHSSR, peptide start residue: 155)”, the log2 fold change stood at 0.183.

On to “UniProt Q9JMK0 (peptide sequence: SIPHHHRGEVQFLGR, peptide start residue: 326)”, for which the log2 fold change was found to be 0.0362.

For “UniProt Q9ES74 (peptide sequence: ASCLLDGVPVALK, peptide start residue: 51)”, the log2 fold change is -0.172.

On to “UniProt Q9JHI5 (peptide sequence: IGQFQLMQGK, peptide start residue: 317)”, for which the log2 fold change worked out at 0.106.

In the case of “UniProt Q9JHU2 (peptide sequence: KALYAMEIK, peptide start residue: 170)”, the log2 fold change is -0.396.

For “UniProt Q9JJL8 (peptide sequence: NLLYEHAR, peptide start residue: 42)”, the log2 fold change worked out at 0.107.

With “UniProt Q9JJD0 (peptide sequence: AGVSGCFSTFQPTTGHR, peptide start residue: 43)”, the log2 fold change was found to be 0.478.

Consider “UniProt Q9ESF1 (peptide sequence: KAKIDELK, peptide start residue: 1402)”, for which the log2 fold change was -0.101.

Consider “UniProt Q9JJX7 (peptide sequence: AEEGHLIPQSLDLVGLEK, peptide start residue: 332)”, for which the log2 fold change came to 0.363.

Consider “UniProt Q9JKF1 (peptide sequence: DRLQYFR, peptide start residue: 827)”, for which the log2 fold change came out at 0.699.

In the case of “UniProt Q9JKF7 (peptide sequence: RFQGLSLPTHLR, peptide start residue: 293)”, the log2 fold change came out at 0.405.

As to “UniProt Q9JK91 (peptide sequence: ALKNPSEEYGK, peptide start residue: 165)”, the log2 fold change is 0.404.

On to “UniProt Q9JJG0 (peptide sequence: NKEIEELTK, peptide start residue: 1129)”, for which the log2 fold change was determined as 0.667.

“UniProt Q9JLY0 (peptide sequence: SLQYLCR, peptide start residue: 497)”: the log2 fold change is -0.207.

With “UniProt Q9JIA7 (peptide sequence: GGSHPLDLLSVTLASGSR, peptide start residue: 276)”, the log2 fold change came out at 0.571.

Regarding “UniProt Q9ERU9 (peptide sequence: KYISTYINVQERDPK, peptide start residue: 47)”, the log2 fold change came out at 0.317.

With “UniProt Q9QUI0 (peptide sequence: MKQEPVKPEEGR, peptide start residue: 134)”, the log2 fold change is 0.15.

In the case of “UniProt Q9JLN5 (peptide sequence: RAAANAGWRR, peptide start residue: 314)”, the log2 fold change worked out at 0.249.

Turning to “UniProt Q9JKX4 (peptide sequence: QWLAIQK, peptide start residue: 456)”, the log2 fold change was found to be 0.529.

For “UniProt Q9JK42 (peptide sequence: HIGSIDPNCSVSDVVKDAYDMAK, peptide start residue: 187)”, the log2 fold change is -0.163.

For “UniProt Q9JIB6 (peptide sequence: FAQALGSLR, peptide start residue: 1271)”, the log2 fold change turned out to be 0.362.

As for “UniProt Q9JLG8 (peptide sequence: TAGLVATEPAR, peptide start residue: 110)”, the log2 fold change is -0.143.

As for “UniProt Q9JL61 (peptide sequence: SLITPISGTLK, peptide start residue: 339)”, the log2 fold change is 0.275.

“UniProt Q9ERV1 (peptide sequence: LAEPEKPR, peptide start residue: 354)”: the log2 fold change is -0.123.

Regarding “UniProt Q9JLI8 (peptide sequence: KVPEKPEVR, peptide start residue: 882)”, the log2 fold change worked out at 0.231.

For “UniProt Q9JL16 (peptide sequence: YTIYDTSTDR, peptide start residue: 105)”, the log2 fold change came out at 0.4.

For the target “UniProt Q9ES70 (peptide sequence: CSLADFQIEKK, peptide start residue: 40)”, the log2 fold change came out at 0.188.
